Results are given in words; binding and its absence hold for the method and conditions named. Binding seen in cells or lysates may run through a third protein. Where a sequence is shown, tags or fusion partners need not be part of it.
Legend:
GST-BRCA1 (1501-1861) = biological target: T1, GST-BRCA1 (1501-1861) (UniProt P38398); assay: pull-down; 1 ug GST fusion on beads rotated overnight at 4°C with whole cell extract (1 mg) of Flag-Tat101-transfected TZM-bl cells in 500 ul lysis buffer; GST-BRCA1 beads washed with TNE300, TNE150, TNE50 + 0.1% NP-40; GST-Tat beads washed with TNE150 once and TNE50 twice + 0.1% NP-40; western blot anti-Flag and anti-BRCA1; only the target purified
T1 sequence: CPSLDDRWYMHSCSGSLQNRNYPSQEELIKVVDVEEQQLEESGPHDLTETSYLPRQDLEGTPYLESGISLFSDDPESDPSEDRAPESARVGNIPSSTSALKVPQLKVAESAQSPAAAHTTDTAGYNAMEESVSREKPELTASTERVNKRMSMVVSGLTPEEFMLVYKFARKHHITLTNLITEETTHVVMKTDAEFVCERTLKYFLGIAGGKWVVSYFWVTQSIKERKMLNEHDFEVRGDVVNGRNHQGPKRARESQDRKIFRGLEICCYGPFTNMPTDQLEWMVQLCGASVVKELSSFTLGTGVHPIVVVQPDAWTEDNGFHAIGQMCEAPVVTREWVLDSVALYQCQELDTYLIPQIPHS

GST-BRCA1 (697-1276) = biological target: T2, GST-BRCA1 (697-1276) (UniProt P38398); assay: as above
T2 sequence: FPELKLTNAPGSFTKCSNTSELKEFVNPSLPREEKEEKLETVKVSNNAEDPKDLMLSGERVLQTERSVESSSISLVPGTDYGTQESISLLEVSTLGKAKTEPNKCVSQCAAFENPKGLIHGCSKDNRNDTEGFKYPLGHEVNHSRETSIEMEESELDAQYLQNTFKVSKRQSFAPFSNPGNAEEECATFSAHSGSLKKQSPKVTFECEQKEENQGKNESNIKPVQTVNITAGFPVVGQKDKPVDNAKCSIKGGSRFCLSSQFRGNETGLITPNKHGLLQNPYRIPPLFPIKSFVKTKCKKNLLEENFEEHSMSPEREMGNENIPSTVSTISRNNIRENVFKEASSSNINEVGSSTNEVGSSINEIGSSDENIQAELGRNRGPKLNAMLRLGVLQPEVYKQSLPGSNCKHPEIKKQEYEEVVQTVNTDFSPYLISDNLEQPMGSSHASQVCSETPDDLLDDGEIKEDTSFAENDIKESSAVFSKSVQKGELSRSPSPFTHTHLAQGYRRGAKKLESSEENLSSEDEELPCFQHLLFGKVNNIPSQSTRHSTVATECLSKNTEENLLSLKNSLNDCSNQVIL

## Flag-Tat101 (HIV-1)
GST-BRCA1 (1501-1861)
  binding: no binding
GST-BRCA1 (697-1276)
  binding: no binding
